Here are results for one sequence from paper PMC7533328, “Sulfane sulfur‐activated actinorhodin production and sporulation is maintained by a natural gene circuit in Streptomyces coelicolor”.

Construct, isoform or probe ends are uncertain for at least one entry. The comparison behind a weaker result is the experiment's own reference, which may not be listed here. At least one verdict rests on a figure or table, not on a statement of the authors. Tags and fusion partners may be left off the protein sequences shown.

The target of this series is T1, ScCsoR (Streptomyces coelicolor M145) (UniProt Q9RD62).
T1 sequence (looked up, limits assumed): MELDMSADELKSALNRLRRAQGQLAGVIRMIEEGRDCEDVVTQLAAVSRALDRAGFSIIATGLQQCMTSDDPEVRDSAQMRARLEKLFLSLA
Briefly: EMSA. Particulars: 1-3 mM HSnH, ScCsoR 8 uM; 20 mM Tris-HCl pH 8.0, 2 mM EDTA, 20 mM KCl, 0.5 mM DTT (or 1-3 mM HSnH), 4% Ficoll-400, 1 nM probe, 25 C, 15 min; recombinant …; protein details: N-terminal His-tag (pET15b); label: 5'-biotin on strand 1.

On to “CCTGGGTATATCTGTTACGGTGGCCGGAAGAGATACCCCAGGGGGTAATTCCGGAAGGAGAGCGTGCCGTGTTCTTTGT (double strand) [Scpdo 79-bp probe (bsI, bsII)]”, for which the binding result is reported as “binds more weakly”.
